Reference: PubChem BioAssay AID2549 (National Center for Advancing Translational Sciences (NCATS), 2010)
About 1,300 (0.54%) of roughly 240,000 compounds were called active. The shares of active, inactive and inconclusive entries below differ from those in the screen. The call rests on the fitted dose curve; in most records, active means well fitted inhibition curve with a large enough effect; inconclusive means small, poorly fitted or top-dose-only effect; inactive means flat fitted curve, though single readings scatter. Potencies of inconclusive entries are doubtful fits and often do not repeat.

Chains of the proteins cited; added tags and fusions are not shown. Lines headed by an entry give the natural chain unless they say otherwise; changes in a name come on top.
UniProt P46063: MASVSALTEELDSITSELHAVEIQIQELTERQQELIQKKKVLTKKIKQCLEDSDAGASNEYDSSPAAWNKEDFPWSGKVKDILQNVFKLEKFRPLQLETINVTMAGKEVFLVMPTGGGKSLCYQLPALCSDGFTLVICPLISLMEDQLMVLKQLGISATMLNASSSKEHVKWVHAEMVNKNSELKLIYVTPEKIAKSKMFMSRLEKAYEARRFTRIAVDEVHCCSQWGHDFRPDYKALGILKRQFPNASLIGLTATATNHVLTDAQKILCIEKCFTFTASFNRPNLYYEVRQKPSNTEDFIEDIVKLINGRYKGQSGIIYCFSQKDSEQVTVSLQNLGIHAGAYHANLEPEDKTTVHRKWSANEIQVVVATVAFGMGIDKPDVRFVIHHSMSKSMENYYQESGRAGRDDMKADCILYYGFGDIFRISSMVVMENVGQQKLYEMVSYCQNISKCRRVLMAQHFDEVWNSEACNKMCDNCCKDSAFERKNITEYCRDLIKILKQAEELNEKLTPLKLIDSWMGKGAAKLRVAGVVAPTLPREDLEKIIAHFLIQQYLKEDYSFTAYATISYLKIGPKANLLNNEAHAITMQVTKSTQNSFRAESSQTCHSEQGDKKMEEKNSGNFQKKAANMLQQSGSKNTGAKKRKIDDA

What follows are compounds tested against ATP-dependent DNA helicase Q1 (Homo sapiens) (UniProt P46063) (assay: qHTS Assay for Inhibitors of RecQ-Like Dna Helicase 1 (RECQ1)). Details: RECQ1 DNA unwinding, red fluorescence kinetic read; series mostly up to 57.3 µM.
In short: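 RECQ1T1 50 nM; forked duplex (20 bp + 30-nt ss tails) 200 nM, ATP 2 mM final; pH 8.0, 2 mM MgCl2, 2.5 ug/ml poly(dI-dC); 15 min compound preincubation; discontinuous kinetic read over 2 h at RT.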
Further: nearly all actives have a fitted effect of over 30% in size.
Potency means the concentration at half of the fitted maximal effect.

Row | SMILES | Potency
1 | COc1ccc(CN(C(=O)c2ccc(-c3ccccc3)[nH]2)C(C(=O)NCC2CCCO2)c2ccc(C)o2)cc1 (stereo not drawn) | active: 25.1 µM
2 | COC(=O)C(O)(CC(=O)c1ccc(OC)cc1)C(F)(F)F (stereo not drawn) | inactive
3 | COc1cc(-c2csc(C)n2)ccc1O | inconclusive: 0.126 µM [inhibitor, partial curve, poor fit]
4 | OC[C@@H]1[C@@H](c2ccccc2)C(c2cccc(Cl)c2)=NN1c1ccccc1 | active: 31.6 µM
5 | CN1Cc2c(N3CCOCC3)nc(SCCC#N)c(C#N)c2CC1(C)C | inactive
6 | C[C@]12C[C@H](O)C3[C@@H](CCC4=CC(=O)CC[C@@]43C)[C@@H]1CC[C@@H]2C(=O)CO (stereo partly drawn) | inactive
7 | CN(C)c1ccc(O)c2c1C[C@@H]1C[C@H]3C(N(C)C)C(=O)C(C(N)=O)=C(O)[C@@]3(O)C(=O)C1=C2O (stereo partly drawn) | inconclusive: 39.8 µM [inhibitor, single point]
8 | CCOc1c(OC(C)=O)ccc(/C=C/c2ccc3cccc(OC(C)=O)c3n2)c1[N+](=O)[O-] | active: 31.6 µM
9 | CCOc1ccc(NC(=O)CC2C(=O)N(c3ccc(OC)cc3)C(=O)N2CCc2cccs2)cc1 (stereo not drawn) | inconclusive: 39.8 µM [inhibitor, partial curve]
10 | Cc1noc(NS(=O)(=O)c2ccc(N/C=C\C(=O)c3cccs3)cc2)c1C | inconclusive: 20 µM [inhibitor, single point]
11 | NC(N)=NCCC[C@H](N)C(=O)NCC(=O)N[C@@H](CC(=O)O)C(=O)O | inactive
12 | Cc1oc(-c2ccc(Cl)cc2)cc1-c1nn2c(-c3ccoc3C)nnc2s1 | active: 14.1 µM
13 | COC(=O)c1c(NC(=O)COC(=O)c2ccccc2O)sc2c1CCCCC2 | inactive
14 | CN[C@@H](CC(C)C)C(=O)N[C@@H]1C(=O)N[C@H](CC(N)=O)C(=O)N[C@@H]2C(=O)N[C@H]3C(=O)N[C@H](C(=O)N[C@H](C(=O)O)c4cc(O)cc(O)c4-c4cc3ccc4O)[C@H](O)c3ccc(c(Cl)c3)Oc3cc2cc(c3O[C@H]2O[C@@H](CO)[C@@H](O)[C@@H](O)[C@@H]2O[C@@H]2C[C@](C)(N)[C@H](O)[C@H](C)O2)Oc2ccc(cc2Cl)[C@@H]1O | inconclusive: 15.8 µM [inhibitor, partial curve]
15 | CCCOc1ccccc1-c1nc2n[nH]nc2c(=O)[nH]1 | inactive
16 | COc1ccc(Cc2nnc(NC(=O)Cc3cccs3)s2)cc1OC | active: 20 µM
17 | CCNc1ccccc(C(=O)/C=C/c2ccc3c(c2)OCO3)c1=O | inconclusive: 35.5 µM [inhibitor, single point]
18 | CCN1/C(=C/C(C)=C/c2sc3ccccc3[n+]2CC)Sc2ccccc21 | active: 12.6 µM
19 | COc1ccccc1C1=Nn2c(nnc2-c2ccccc2C)SC1 | inactive
20 | O=C(Nc1ccc(-n2nncc2-c2ccco2)cc1)c1cccc(F)c1 | inactive
21 | C/C(CCc1ccc2c(c1)OCO2)=N\NC(=O)c1ccccc1Cl | inconclusive: 0.891 µM [inhibitor, single point]
22 | Cc1[nH][nH]c(=O)c1C(c1ccc(-c2ccc(C(=O)O)cc2)o1)c1c(C)[nH][nH]c1=O | active: 11.2 µM

Single values from the entries so far.
Potency, `NC(N)=NCCC[C@H](N)C(=O)NCC(=O)N[C@@H](CC(=O)O)C(=O)O` is entered as inactive
Potency, `C/C(CCc1ccc2c(c1)OCO2)=N\NC(=O)c1ccccc1Cl` is entered as inconclusive: 0.891 µM [inhibitor, single point]

(continued)

Row | SMILES | Potency
23 | O=S(=O)(c1ccccc1)n1c(C(O)c2ccccn2)cc2ccccc21 (stereo not drawn) | inconclusive: 39.8 µM [inhibitor, single point]
24 | O=c1cc(-c2ccccc2)oc2cccc(O)c12 | inactive
25 | Cc1ccc(SCC(CC(C)C)N2CCN(C)CCC2=O)cc1 (stereo not drawn) | inactive
26 | C=C(C)CN(CC)C(=O)CCc1nnc(CCc2c[nH]c3ccccc23)o1 | inconclusive: 0.141 µM [inhibitor, partial curve, poor fit]
27 | C[n+]1cccc2c(Br)ccc([O-])c21 | active: 31.6 µM
28 | O=C(O)C1Nc2c(O)cc(Cl)c([N+](=O)[O-])c2C2C=CCC12 (stereo not drawn) | active: 1.78 µM
29 | COc1c(Cl)cc(-c2noc(C)c2C(=O)NCc2ccc3c(c2)OCO3)cc1Cl | inconclusive: 39.8 µM [inhibitor, partial curve]
30 | CC(=O)Nc1ccc(NC(=O)CCc2nc3ccccc3c(=O)[nH]2)cc1 | inconclusive: 0.158 µM [inhibitor, full curve, poor fit]
31 | CCOC(=O)c1c(C)oc2c(F)c(F)c(F)c(F)c2c1=O | inconclusive: 28.2 µM [inhibitor, single point]
32 | CCOC(=O)c1ccc(S(=O)(=O)N2CCN(C(=O)c3nn(C)c(=O)c4ccccc34)CC2)cc1 | inconclusive: 39.8 µM [inhibitor, single point]
33 | CCCCC1(C)OC(=O)C(=Cc2ccc(-c3ccc(Cl)c(C(=O)O)c3)o2)C(=O)O1 (stereo not drawn) | inconclusive: 25.1 µM [inhibitor, single point]
34 | CCN(CC(=O)Nc1ccc([N+](=O)[O-])cc1OC)c1ccccc1 | inconclusive: 39.8 µM [inhibitor, single point]
35 | CCOC(=O)N1CCC(NC(=O)c2cc3c(-c4ccc(OC)c(OC)c4)nn(C)c3s2)CC1 | inactive
36 | Cc1cc(N)c2ccccc2[n+]1CCCCCCCCCC[n+]1c(C)cc(N)c2ccccc21 | inconclusive: 39.8 µM [inhibitor, single point]
37 | C#CCOCCOCCOCCNc1nc(N2CCN(C(=O)[C@H](Cc3ccc(O)cc3)n3cc([C@@H](N)C(C)CC)nn3)CC2)nc(N2CCN(C(=O)[C@H](Cc3cc4ccccc4[nH]3)n3cc([C@@H](N)C(C)CC)nn3)CC2)n1 (stereo partly drawn) | inconclusive: 39.8 µM [inhibitor, single point]
38 | O=C(NCc1ccccn1)C1CC(c2ccc(Cl)c(Cl)c2)=NO1 (stereo not drawn) | inactive
39 | CSc1ncc(CN2CCN(C3CCCCC3)C(CCO)C2)cn1 (stereo not drawn) | inactive
40 | COC(=O)C1=C(C)N(c2ccc(C(=O)OC)cc2)C(=O)C1 | inactive
41 | COC(=O)C1=C(C)N(C)C(=O)NC1c1cc2c(cc1[N+](=O)[O-])OCO2 (stereo not drawn) | inconclusive: 39.8 µM [inhibitor, single point]
42 | N#CC(C#N)=C(N)/C(C#N)=C/c1cc(O)c(O)c(O)c1 | inconclusive: 39.8 µM [inhibitor, single point]
43 | O=C(O)c1ccc2cccnc2n1 | inactive
